{
  "sequences": {"note": "Sequences of proteins named here, by UniProt entry; tags and fusion partners are left off. Residues count along the entry.", "UniProt P18507, 40-475": "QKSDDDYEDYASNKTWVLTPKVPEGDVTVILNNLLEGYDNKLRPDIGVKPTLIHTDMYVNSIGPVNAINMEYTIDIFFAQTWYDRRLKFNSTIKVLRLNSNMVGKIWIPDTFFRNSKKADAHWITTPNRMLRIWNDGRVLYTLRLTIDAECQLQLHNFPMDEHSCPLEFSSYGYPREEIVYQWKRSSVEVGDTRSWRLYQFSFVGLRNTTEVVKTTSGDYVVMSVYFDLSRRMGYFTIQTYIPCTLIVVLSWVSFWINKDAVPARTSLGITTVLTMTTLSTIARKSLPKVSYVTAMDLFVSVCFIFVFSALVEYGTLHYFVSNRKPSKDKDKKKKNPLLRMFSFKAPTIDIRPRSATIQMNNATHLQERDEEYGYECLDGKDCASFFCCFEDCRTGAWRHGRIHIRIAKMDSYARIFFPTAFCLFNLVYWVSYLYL", "UniProt P31644, 32-462": "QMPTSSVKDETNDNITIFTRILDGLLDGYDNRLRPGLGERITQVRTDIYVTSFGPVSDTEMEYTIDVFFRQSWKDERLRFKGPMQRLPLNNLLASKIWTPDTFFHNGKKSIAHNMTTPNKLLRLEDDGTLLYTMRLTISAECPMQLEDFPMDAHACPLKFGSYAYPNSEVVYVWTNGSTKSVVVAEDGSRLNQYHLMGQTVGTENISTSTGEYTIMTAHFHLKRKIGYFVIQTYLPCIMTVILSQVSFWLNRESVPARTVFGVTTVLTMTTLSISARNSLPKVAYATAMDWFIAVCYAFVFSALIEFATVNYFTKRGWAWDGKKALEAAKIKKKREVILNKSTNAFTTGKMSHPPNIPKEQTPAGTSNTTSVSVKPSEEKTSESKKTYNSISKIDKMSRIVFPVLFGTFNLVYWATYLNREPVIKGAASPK"},
  "source": "patent US20240425491A1",
  "about": "“HETEROARYL COMPOUNDS USEFUL IN THE TREATMENT OF COGNITIVE DISORDERS” (University College Cardiff Consultants Limited, priority 2021, published 2024)",
  "molecular_target": "T1, human α5β3γ2 GABAARs in mouse L(tk−) cells (Homo sapiens, UniProt P18507+P31644)",
  "T1 construct": "expressed in transfected cells; host or cells: mouse L(tk−) cells, dexamethasone-inducible vector pMSGneo",
  "test": "In vitro electrophysiological recording assay (α5-GABAAR relative efficacy), QPatch",
  "assay_type": "cell-based",
  "details": "GABA EC10-20",
  "from_the_text": "Mouse L(tk^−) cells stably expressing human α1β3γ2, α2β3γ2, α3β3γ2, α5β3γ2 GABAARs generated by transfection of the individual subunits in the dexamethasone-inducible expression vector pMSGneo in mouse L(tk^−) cells (Hadingham et al., 1993, Mol. Pharmacol. 43:970-975 and 1993, Mol. Pharmacol. 44:1211-1218) were used for binding and functional assays. For certain compounds, HEK293 cells stable expressing the human α1β3γ2L, α2β3γ2L, α3β3γ2L and α5β3γ2L GABAA receptors were used to evaluate their functional effects in a SyncroPatch electrophysiology assay.\nFor QPatch electrophysiology testing, 1 μM dexamethasone was added to the culture medium of L(tk^−) cells 24 hours before the recordings were performed. Cells were typically used for electrophysiology experiments 72-96 hours after splitting.\nThe efficacy of modulators was evaluated using either the automated patch-clamp platform QPatch16 (Sophion, Copenhagen, Denmark) or the SyncroPatch 384i (Nanion Technologies, Germany). Cells were harvested from flasks by enzymatic dissociation and re-suspended in serum-free medium.\nFor QPatch recordings, all experiments were carried out at room temperature (20-22° C.) using a standard whole cell procedure and physiological solutions. Gigaseals were formed upon execution of a combined suction/voltage protocol with subsequent increased suction leading to the whole-cell configuration. The currents recorded were acquired at 1 KHz and filtered at 0.3 KHz using a Bessel filter. Whole-cell currents were measured at a holding potential of −65 mV.\nFor QPatch recordings, the extracellular solution contained of (in mM): 145 NaCl, 4 KCl, 1 MgCl2, 2CaCl2, 10 HEPES, 10 D-glucose (pH 7.4), and the intracellular solution consisted of (in mM): 96 KCl, 28 CsCl, 25 KOH, 4.3 CaCl2), 1.4 MgCl2, 10 EGTA, HEPES, 3 MgATP (pH 7.2). The osmolarities of the extracellular and intracellular solutions were 305 and 295 mOsm respectively.\nThe effects of modulators were evaluated in the presence of a submaximal GABA concentration, giving typically 10-20% activation (GABA EC10-20) of the response elicited by a saturating GABA concentration. […]\nThe % efficacy of modulators was determined from the GABA elicited currents recorded in the presence and absence of the test compound, using the formula: […]\nwhere ‘leak’ is the leak baseline current at −65 mV, ‘compound peak current’ is the current elicited by co-application of compound and GABA, and ‘GABA peak current’ is the current elicited by GABA alone during the 5th GABA application. The results were presented as ‘relative efficacy’ for each compound generally at a concentration equal or higher than 100 times their determined Ki. […]",
  "note": "At least one compound was matched to its structure with a doubt left.",
  "data": [
    {"molecule": "COc1nc(-c2cnc(Cl)nc2)ccc1NC(=O)c1c(-c2ccccc2)noc1C", "note": "[Example 36, N-[6-(2-Chloropyrimidin-5-yl)-2-methoxy-3-pyridyl]-5-methyl-3-phenyl-isoxazole-4-carboxamide]", "values": [
      {"measurement": "α5-GABAAR Relative Efficacy (to DMCM), Qpatch", "setting": "Conc 0.3 μM", "value": "−0.86"}
    ]},
    {"molecule": "COc1nc(-c2cnc3c(c2)CC(=O)N3)ccc1NC(=O)c1c(-c2ccccc2)noc1C", "note": "[Example 114, N-(2-Methoxy-6-(2-oxo-2,3-dihydro-1H-pyrrolo[2,3-b]pyridin-5-yl)pyridin-3-yl)-5-methyl-3-phenylisoxazole-4-carboxamide]", "values": [
      {"measurement": "α5-GABAAR Relative Efficacy (to DMCM), Qpatch", "setting": "Conc 1 μM", "value": "−0.74"}
    ]},
    {"molecule": "COc1nc(-c2c[nH]c(=O)c(F)c2)ccc1NC(=O)c1c(-c2ccccc2)noc1C", "note": "[Example 116, N-(5′-Fluoro-6-methoxy-6′-oxo-1′,6′-dihydro-[2,3′-bipyridin]-5-yl)-5-methyl-3-phenylisoxazole-4-carboxamide]", "values": [
      {"measurement": "α5-GABAAR Relative Efficacy (to DMCM), Qpatch", "setting": "Conc 0.3 μM", "value": "−0.84"}
    ]},
    {"molecule": "COc1nc(-c2ccc3c(=O)[nH]ncc3c2)ccc1NC(=O)c1c(-c2ccccc2)noc1C", "note": "[Example 117, N-(2-Methoxy-6-(1-oxo-1,2-dihydrophthalazin-6-yl)pyridin-3-yl)-5-methyl-3-phenylisoxazole-4-carboxamide]", "values": [
      {"measurement": "α5-GABAAR Relative Efficacy (to DMCM), Qpatch", "setting": "Conc 0.3 μM", "value": "−0.70"}
    ]}
  ]
}
